This list was built around the results that the source calls inconclusive (neither active nor inactive); the mix of calls is not that of the screen. Where the call is inconclusive, the potency comes from a doubtful curve fit. Activity calls are given as the source filed them. The call rests on the fitted dose curve; in most records, active means well fitted activation curve with a large enough effect; inconclusive means small, poorly fitted or top-dose-only effect; inactive means no such curve, though single readings can be large or run the other way.
assay: qHTS assay for re-activators of p53 using a Luc reporter: Hit Validation; conditions: p53-responsive luciferase reporter cells, luminescence, H1299 line expressing heat-sensitive Ala138Val p53; series mostly up to 46.1 µM; further: nearly all actives have a fitted effect of over 75% in size
In short: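 Hit confirmation with a 1:5 dilution series, at 37 deg C for 24 hrs, in H1299 cells co-expressing temperature-sensitive p53-A138V and p53-responsive luciferase. Nocodazole served as control; luminescence read after 10 min with detection reagent.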
Potency means the concentration at half of the fitted maximal effect.

Row | Structure (SMILES) | Potency
1 | Cc1cccnc1NC(=O)/C=C/c1ccc2c(c1)OCO2 | inconclusive: 4.61 µM [activator, partial curve, poor fit]
2 | O=C(/C(=C\c1ccccc1)c1nc2ccccc2[nH]1)c1ccc(Cl)cc1 | inconclusive: 58 µM [activator, partial curve, poor fit]
3 | O=c1nc2sc3ccccc3n2c(=O)n1-c1cccc(Cl)c1 | inconclusive: 18.4 µM [activator, partial curve, poor fit]
4 | Cc1ccc(-c2nnc(SCC(=O)Nc3ccccc3F)o2)cc1 | inconclusive: 0.146 µM [activator, partial curve, poor fit]
5 | CN(C)C(=O)c1ccc2c(c1[N+](=O)[O-])C(=O)c1ccccc1C2=O | inconclusive: 36.6 µM [activator, partial curve, poor fit]
6 | CC(=O)Nc1cccc(C(=O)N/N=C/c2ccccc2F)c1 | inconclusive: 5.8 µM [activator, partial curve, poor fit]
7 | Cc1ccccc1OCC(=O)Nc1cccc2nsnc12 | inconclusive: 36.6 µM [activator, single point]
8 | Cn1ncc(Cl)c(Oc2ccc(C(C)(C)C)cc2)c1=O | inconclusive: 29.1 µM [activator, single point]
9 | CS(=O)(=O)c1ccc2nc(NC(=O)CCC(=O)c3cccs3)sc2c1 | inconclusive: 36.6 µM [activator, single point]
10 | CCc1ccc(N=c2c([N+](=O)[O-])nn(-c3ccccc3)n2O)cc1 | active: 9.2 µM
